The list is a part of this screen's results and no random one: it is rich in T/C values a quarter to a half above the control, in often repeated tests (any T/C) and in doses without a T/C. Other doses and runs of a compound stand elsewhere. T/C gives the treated animals as a percentage of the vehicle group. Some entries give survivors of the animals treated and no T/C: the source holds a T/C of zero for them, seemingly a mark for toxic or unscored doses. Some doses without a T/C left all or most animals alive at the check, yet need not have been tolerated: survival well below the control is almost never listed, so the zero probably covers shortened survival too. Counts of survivors are from the toxicity check (mostly the fifth day) where no day follows; animals may have died later. Schedule codes are those of the source, taken here to give the interval after Q, in days (D) or hours (H), and the number of doses after X. Some entries were tested several times; their values stand side by side, smallest first. Where survival is the endpoint, the PubChem record calls one and a half times the control and up active, and a quarter to a half above the control has no call in these data; cut-offs in other NCI protocols can differ. Some T/C values carry the count of animals alive at the toxicity check (mostly the fifth day); without a count, all were alive then. Counts like (3×) give the number of equal values in this list.
Tested on: L1210 leukemia ip in BDF1 mice, survival T/C
Test: NCI In Vivo Anticancer Drug Screen. Data for tumor model L1210 Leukemia (intraperitoneal) in B6D2F1 (BDF1) mice
Conditions: T/C endpoint: median survival time, higher T/C = longer survival
[1] = dose: 2048.0 mg/kg/injection, schedule: Q04DX003 (oral), vehicle: saline with Tween-80

With `CC(CN1CC(=O)NC(=O)C1)N1CC(=O)NC(=O)C1` (configuration not stated) the T/C (dose: 205.0 mg/kg/injection, schedule: Q04DX003 (ip), vehicle: Klucel (hydroxypropylcellulose) (HPC), evaluated on day 35) was 138 % of control, the T/C (dose: 205.0 mg/kg/injection, schedule: Q04DX003 (ip), vehicle: Klucel (hydroxypropylcellulose) (HPC), evaluated on day 60) was 155 % of control and the T/C (dose: 256.0 mg/kg/injection, schedule: Q04DX003 (ip), vehicle: Klucel (hydroxypropylcellulose) (HPC), evaluated on day 5) was 202 % of control. For the same compound, the T/C (dose: 256.0 mg/kg/injection, schedule: Q04DX003 (ip), vehicle: Klucel (hydroxypropylcellulose) (HPC), evaluated on day 7) was 184 % of control, the T/C (dose: 256.0 mg/kg/injection, schedule: Q04DX003 (ip), vehicle: Klucel (hydroxypropylcellulose) (HPC), evaluated on day 35) was 177 % of control and the T/C (dose: 256.0 mg/kg/injection, schedule: Q04DX003 (ip), vehicle: Klucel (hydroxypropylcellulose) (HPC), evaluated on day 60) was 205 % of control. The T/C (dose: 256.0 mg/kg/injection, schedule: Q04DX003 (oral), vehicle: saline with Tween-80) was 162, 173, 190 [8 of 10 alive], 257 % of control, the T/C (dose: 256.0 mg/kg/injection, schedule: Q08DX002 (ip), vehicle: saline with Tween-80) was 132 % of control and the T/C (dose: 300.0 mg/kg/injection, schedule: Q04DX003 (ip), vehicle: Klucel (hydroxypropylcellulose) (HPC), evaluated on day 5) was 174, 175, 195, 197 % of control. The T/C (dose: 300.0 mg/kg/injection, schedule: Q04DX003 (ip), vehicle: Klucel (hydroxypropylcellulose) (HPC), evaluated on day 7) was 157 % of control, the T/C (dose: 300.0 mg/kg/injection, schedule: Q04DX003 (ip), vehicle: Klucel (hydroxypropylcellulose) (HPC), evaluated on day 24) was 155 % of control and the T/C (dose: 300.0 mg/kg/injection, schedule: Q04DX003 (ip), vehicle: Klucel (hydroxypropylcellulose) (HPC), evaluated on day 27) was 211 % of control. For the same compound, the T/C (dose: 300.0 mg/kg/injection, schedule: Q04DX003 (ip), vehicle: Klucel (hydroxypropylcellulose) (HPC), evaluated on day 30) was 170 % of control, the T/C (dose: 300.0 mg/kg/injection, schedule: Q04DX003 (ip), vehicle: Klucel (hydroxypropylcellulose) (HPC), evaluated on day 33) was 194 % of control and the T/C (dose: 300.0 mg/kg/injection, schedule: Q04DX003 (ip), vehicle: Klucel (hydroxypropylcellulose) (HPC), evaluated on day 34) was 197 % of control. For the same compound, the T/C (dose: 300.0 mg/kg/injection, schedule: Q04DX003 (ip), vehicle: Klucel (hydroxypropylcellulose) (HPC), evaluated on day 46) was 172 % of control, the T/C (dose: 300.0 mg/kg/injection, schedule: Q04DX003 (ip), vehicle: Klucel (hydroxypropylcellulose) (HPC), evaluated on day 60) was 194 % of control and the T/C (dose: 320.0 mg/kg/injection, schedule: Q04DX003 (ip), vehicle: Klucel (hydroxypropylcellulose) (HPC), evaluated on day 5) was 138 % of control. The T/C (dose: 320.0 mg/kg/injection, schedule: Q04DX003 (ip), vehicle: Klucel (hydroxypropylcellulose) (HPC), evaluated on day 7) was 242 % of control, the T/C (dose: 320.0 mg/kg/injection, schedule: Q04DX003 (ip), vehicle: Klucel (hydroxypropylcellulose) (HPC), evaluated on day 35) was 244 % of control and the T/C (dose: 320.0 mg/kg/injection, schedule: Q04DX003 (ip), vehicle: Klucel (hydroxypropylcellulose) (HPC), evaluated on day 60) was 138 % of control [7 of 8 alive]. The T/C (dose: 400.0 mg/kg/injection, schedule: Q01DX001 (ip), vehicle: Klucel (hydroxypropylcellulose) (HPC), evaluated on day 5) was 132, 139, 146, 160 (2×), 166 % of control, the T/C (dose: 400.0 mg/kg/injection, schedule: Q01DX001 (ip), vehicle: Klucel (hydroxypropylcellulose) (HPC), evaluated on day 30) was 138 (2×) and 168 % of control and the T/C (dose: 400.0 mg/kg/injection, schedule: Q01DX001 (ip), vehicle: Klucel (hydroxypropylcellulose) (HPC), evaluated on day 60) was 166 % of control. For the same compound, the T/C (dose: 400.0 mg/kg/injection, schedule: Q01DX001 (ip), vehicle: Klucel (hydroxypropylcellulose) (HPC), evaluated on day 75) was 166 % of control, the T/C (dose: 400.0 mg/kg/injection, schedule: Q01DX001 (ip), vehicle: other) was 149 % of control and the T/C (dose: 400.0 mg/kg/injection, schedule: Q04DX003 (ip), vehicle: Klucel (hydroxypropylcellulose) (HPC), evaluated on day 5) was 95, 99, 106, 109, 118, 130, 152, 184, 253, 258, 265 % of control. The T/C (dose: 400.0 mg/kg/injection, schedule: Q04DX003 (ip), vehicle: Klucel (hydroxypropylcellulose) (HPC), evaluated on day 7) was 138, 141, 188 % of control, the T/C (dose: 400.0 mg/kg/injection, schedule: Q04DX003 (ip), vehicle: Klucel (hydroxypropylcellulose) (HPC), evaluated on day 30) was 118 [7 of 8 alive] and 138 % of control and the T/C (dose: 400.0 mg/kg/injection, schedule: Q04DX003 (ip), vehicle: Klucel (hydroxypropylcellulose) (HPC), evaluated on day 32) was 180 % of control. For the same compound, the T/C (dose: 400.0 mg/kg/injection, schedule: Q04DX003 (ip), vehicle: Klucel (hydroxypropylcellulose) (HPC), evaluated on day 35) was 138 % of control, the T/C (dose: 400.0 mg/kg/injection, schedule: Q04DX003 (ip), vehicle: Klucel (hydroxypropylcellulose) (HPC), evaluated on day 50) was 253 % of control and the T/C (dose: 400.0 mg/kg/injection, schedule: Q04DX003 (ip), vehicle: Klucel (hydroxypropylcellulose) (HPC), evaluated on day 54) was 111 % of control. For the same compound, the T/C (dose: 400.0 mg/kg/injection, schedule: Q04DX003 (ip), vehicle: Klucel (hydroxypropylcellulose) (HPC), evaluated on day 60) was 94, 100, 133, 150, 184, 255 % of control, the T/C (dose: 400.0 mg/kg/injection, schedule: Q04DX003 (ip), vehicle: Klucel (hydroxypropylcellulose) (HPC), evaluated on day 75) was 255 % of control and the T/C (dose: 500.0 mg/kg/injection, schedule: Q04DX003 (ip), vehicle: Klucel (hydroxypropylcellulose) (HPC), evaluated on day 5) was 92, 98, 104, 125, 239 % of control. The T/C (dose: 500.0 mg/kg/injection, schedule: Q04DX003 (ip), vehicle: Klucel (hydroxypropylcellulose) (HPC), evaluated on day 7) was 131 and 159 % of control, the T/C (dose: 500.0 mg/kg/injection, schedule: Q04DX003 (ip), vehicle: Klucel (hydroxypropylcellulose) (HPC), evaluated on day 24) was 155 % of control and the T/C (dose: 500.0 mg/kg/injection, schedule: Q04DX003 (ip), vehicle: Klucel (hydroxypropylcellulose) (HPC), evaluated on day 27) was 111 % of control [6 of 8 alive]. For the same compound, the T/C (dose: 500.0 mg/kg/injection, schedule: Q04DX003 (ip), vehicle: Klucel (hydroxypropylcellulose) (HPC), evaluated on day 30) was 100 % of control, the T/C (dose: 500.0 mg/kg/injection, schedule: Q04DX003 (ip), vehicle: Klucel (hydroxypropylcellulose) (HPC), evaluated on day 33) was 116 % of control and the T/C (dose: 500.0 mg/kg/injection, schedule: Q04DX003 (ip), vehicle: Klucel (hydroxypropylcellulose) (HPC), evaluated on day 34) was 98 % of control. For the same compound, the T/C (dose: 500.0 mg/kg/injection, schedule: Q04DX003 (ip), vehicle: Klucel (hydroxypropylcellulose) (HPC), evaluated on day 35) was 133 % of control, the T/C (dose: 500.0 mg/kg/injection, schedule: Q04DX003 (ip), vehicle: Klucel (hydroxypropylcellulose) (HPC), evaluated on day 46) was 238 % of control and the T/C (dose: 500.0 mg/kg/injection, schedule: Q04DX003 (ip), vehicle: Klucel (hydroxypropylcellulose) (HPC), evaluated on day 60) was 94 and 115 % of control. The T/C (dose: 512.0 mg/kg/injection, schedule: Q04DX003 (oral), vehicle: saline with Tween-80) was 120 [8 of 10 alive], 152, 169, 196 % of control, the T/C (dose: 800.0 mg/kg/injection, schedule: Q01DX001 (ip), vehicle: Klucel (hydroxypropylcellulose) (HPC), evaluated on day 5) was 67, 69, 74, 75, 98, 150 % of control and the T/C (dose: 800.0 mg/kg/injection, schedule: Q01DX001 (ip), vehicle: Klucel (hydroxypropylcellulose) (HPC), evaluated on day 75) was 100 % of control. The survivor count (dose: 800.0 mg/kg/injection, schedule: Q01DX001 (ip), vehicle: Klucel (hydroxypropylcellulose) (HPC)) was 4 of 8, 5 of 8, 7 of 8, 8 of 8, the survivor count (dose: 800.0 mg/kg/injection, schedule: Q01DX001 (ip), vehicle: steroid suspending solution) was 7 of 8 and the T/C (dose: 800.0 mg/kg/injection, schedule: Q04DX003 (ip), vehicle: Klucel (hydroxypropylcellulose) (HPC), evaluated on day 5) was 64 and 68 % of control. The T/C (dose: 800.0 mg/kg/injection, schedule: Q04DX003 (ip), vehicle: Klucel (hydroxypropylcellulose) (HPC), evaluated on day 7) was 111 and 136 % of control, the T/C (dose: 800.0 mg/kg/injection, schedule: Q04DX003 (ip), vehicle: Klucel (hydroxypropylcellulose) (HPC), evaluated on day 30) was 136 % of control and the T/C (dose: 800.0 mg/kg/injection, schedule: Q04DX003 (ip), vehicle: Klucel (hydroxypropylcellulose) (HPC), evaluated on day 32) was 110 % of control. For the same compound, the survivor count (dose: 800.0 mg/kg/injection, schedule: Q04DX003 (ip), vehicle: Klucel (hydroxypropylcellulose) (HPC)) was 7 of 8 and 8 of 8, the survivor count (dose: 800.0 mg/kg/injection, schedule: Q04DX003 (ip), vehicle: steroid suspending solution) was 8 of 8 and the survivor count (dose: 1024.0 mg/kg/injection, schedule: Q01DX001 (ip), vehicle: saline with Tween-80) was 6 of 10. For the same compound, the survivor count (dose: 1024.0 mg/kg/injection, schedule: Q04DX003 (ip), vehicle: saline with Tween-80) was 6 of 10, the T/C (dose: 1024.0 mg/kg/injection, schedule: Q04DX003 (oral), vehicle: saline with Tween-80) was 87 [7 of 10 alive], 190, 215, 260 % of control and the survivor count (dose: 1024.0 mg/kg/injection, schedule: Q08DX002 (ip), vehicle: saline with Tween-80) was 6 of 10. For the same compound, the T/C [1] was 109 [9 of 10 alive], 130, 220 % of control and the survivor count [1] was 5 of 10.

— PubChem BioAssay AID248 (DTP/NCI, 2004)
